Test results from publication PMC10942606.
No constants are given. Whether binding was seen depends on the method and setting. Values belong to the binder of their own block, whether it stands above or below them.

Columns and labels:
[1] = biological target: Pcf1_KER (56-170) (S. pombe) (UniProt Q1MTN9); experiment: SEC-SAXS
[2] = biological target: T1, Pcf2 (medium subunit of SpCAF-1) (S. pombe) (UniProt O13985); experiment: SEC
T1 sequence: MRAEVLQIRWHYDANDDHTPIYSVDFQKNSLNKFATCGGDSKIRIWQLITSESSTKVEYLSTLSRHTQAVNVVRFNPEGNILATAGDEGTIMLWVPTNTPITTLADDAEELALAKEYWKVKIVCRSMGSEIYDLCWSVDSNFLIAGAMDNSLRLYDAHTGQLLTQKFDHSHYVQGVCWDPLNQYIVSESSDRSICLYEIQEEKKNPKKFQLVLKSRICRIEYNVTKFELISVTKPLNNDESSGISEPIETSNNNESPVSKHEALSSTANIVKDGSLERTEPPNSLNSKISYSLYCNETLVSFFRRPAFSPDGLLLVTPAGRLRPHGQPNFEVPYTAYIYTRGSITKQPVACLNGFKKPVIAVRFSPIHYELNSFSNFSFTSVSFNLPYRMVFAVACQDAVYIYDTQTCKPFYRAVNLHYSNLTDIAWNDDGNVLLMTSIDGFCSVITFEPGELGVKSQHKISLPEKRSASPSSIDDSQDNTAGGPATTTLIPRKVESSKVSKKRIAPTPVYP

[3] = biological target: Pcf3 (small subunit of SpCAF-1) (S. pombe) (UniProt Q9Y825); experiment: SEC

binding [1]: no binding
B1: Pcf1_KER (56-170) (domain or fragment, UniProt Q1MTN9 56-170)
chain: KLSYEGNRKKRIYNGSAEAGKEKKLQKQRAQEERIRQKEAERLKREKERQQREQEKKLREQEKIAAKKMKELEKLEKERIRLQEQQRRKEERDQKLREKEEAQRLRQEQILNKER

binding [2]: no binding
B2: Pcf2 (medium subunit of SpCAF-1) (protein, UniProt O13985 1-512)
chain: T1 sequence

binding [2]: no binding | binding [3]: no binding
B3: Pcf3 (small subunit of SpCAF-1) (protein, UniProt Q9Y825 1-408)
chain: MNTELDMQNFEHIKFLENQISEDHFRWKKNSKHLYNLLITRTLTWPSLSIQWLSAMESITEKAVLKNRLLLGTHAAEGMPNFLQLADLDLPDFNQTILDPVKHYNEDTGELGGYSMQHSCKFQISQRILHNGDVNRVRHMPQNPNIIATMSSCGNAYIFDRTKYTSMPAEEFLPNISLIGHKKEGFGLSWNRQQNCRLVTAANDSKILEWDLNNFSRDTRCLTPVKDFHYDDSPVNDVEYHPHHTNLYIAVNDNGIAFICDNRLQQTCSKTVKASNPLFSVRHNPSIATLFALGSEQDLQLWDLRNLNKSVFNTSEDLSDNRLKVPSRLTLGGTSLSWSWRHSGRIVSACQEYCYVWNFNKANPLEFVHAGHKGTVNEVDFDPFEAQCIASVADDNELHIWKPNVIVN
